Reference: patent publication US9598389B2, “Dihydrobenzofuran derivatives as insecticidal compounds” (SYNGENTA PARTICIPATIONS AG, priority 2013, dated 2017)
Some results were stated once for a whole list of compounds, not compound by compound. For at least one compound, name, drawing or mass did not settle the structure.

Tests used:
Format in all cases: in vivo
[1] = tested on: Spodoptera Littoralis (Egyptian Cotton Leaf Worm); assay: Spodoptera littoralis cotton leaf disc spray test; conditions: application rate of 200 ppm; L1 larvae; 3 days after infestation
[2] = tested on: Heliothis virescens (Tobacco Budworm); assay: Heliothis virescens egg/larval test on artificial diet; conditions: application rate of 200 ppm; eggs 0-24 h old; 5 days after infestation
Procedure: Heliothis virescens (Tobacco Budworm):
Eggs (0-24 h old) were placed in 24-well microtiter plates on artificial diet and treated with aqueous test solutions prepared from 10,000 ppm DMSO stock solutions by pipetting. The samples were assessed for egg and larval mortality 5 days after infestation.

[3] = tested on: Plutella xylostella (Diamond Back Moth); assay: Plutella xylostella L2 larvae test on artificial diet; conditions: application rate of 200 ppm, 5 days after infestation
Procedure: Plutella xylostella (Diamond Back Moth):
(§1) 24-well microtiter plates with artificial diet were treated with aqueous test solutions prepared from 10,000 ppm DMSO stock solutions by pipetting. After drying, the plates were infested with L2 larvae (10 to 15 per well). The samples were assessed for mortality and growth inhibition in comparison to untreated samples 5 days after infestation.

[4] = tested on: Diabrotica balteata (Corn Root Worm); assay: Diabrotica balteata L2 larvae test on artificial diet; conditions: application rate of 200 ppm, 5 days after infestation
Procedure: Diabrotica balteata (Corn Root Worm):
as §1, with “(6” for “(10”, “10” for “15”

[5] = tested on: Thrips tabaci (Onion Thrips); assay: Thrips tabaci sunflower leaf disc spray test; conditions: application rate of 200 ppm; population of mixed ages; 6 days after infestation
Procedure: Thrips tabaci (Onion Thrips):
Sunflower leaf discs were placed on agar in 24-well microtiter plates and sprayed with aqueous test solutions prepared from 10,000 ppm DMSO stock solutions. After drying the leaf discs were infested with a thrips population of mixed ages. The samples were assessed for mortality 6 days after infestation.

Compound | control (at least one of mortality, anti-feedant effect, growth inhibition) [1] | egg or larval mortality [2] [%] | effect in at least one of the two categories (mortality or growth inhibition) [3] [%] | effect in at least one of the two categories (mortality or growth inhibition) [4] [%] | mortality [5] [%]
CC(=O)Nc1cc(-c2ccc3c(c2)CC(c2cc(Cl)cc(Cl)c2)(C(F)(F)F)O3)ccc1F (stereo not drawn) [Compound 153] | at least 80% | ≥ 80 | ≥ 80 | ≥ 80 | ≥ 80
CSCC(=O)Nc1cc(-c2ccc3c(c2)CC(c2cc(Cl)cc(Cl)c2)(C(F)(F)F)O3)ccc1F (racemic) [Compound 81] | at least 80% | ≥ 80 | ≥ 80 | ≥ 80 | ≥ 80
O=C(Nc1cccc(-c2cc3c(cc2Cl)OC(c2cc(Cl)cc(Cl)c2)(C(F)(F)F)C3)c1)C1CC1 (racemic) [Compound 91] | at least 80% | ≥ 80 | ≥ 80 | ≥ 80 | ≥ 80
CCC(=O)Nc1cc(-c2ccc3c(c2)CC(c2cc(Cl)cc(Cl)c2)(C(F)(F)F)O3)cnc1Cl (stereo not drawn) [Compound 241] | at least 80% | ≥ 80 | ≥ 80 | – | ≥ 80
CCC(=O)Nc1cc(-c2ccc3c(c2)CC(c2cc(C(F)(F)F)cc(C(F)(F)F)c2)(C(F)(F)F)O3)ccc1F (stereo not drawn) [Compound 215] | at least 80% | ≥ 80 | ≥ 80 | ≥ 80 | ≥ 80
CSCC(=O)Nc1cc(F)cc(-c2ccc3c(c2)CC(c2cc(Cl)cc(Cl)c2)(C(F)(F)F)O3)c1 (racemic) [Compound 85] | at least 80% | ≥ 80 | ≥ 80 | – | ≥ 80
N#Cc1ccc(-c2ccc3c(c2)CC(c2ccnc(C(F)(F)F)c2)(C(F)(F)F)O3)cc1NC(=O)C1CSC1 (racemic) [Compound 262] | – | – | ≥ 80 | – | ≥ 80
C=C(C)C(=O)Nc1cccc(-c2ccc3c(c2)CC(c2cc(Cl)cc(Cl)c2)(C(F)(F)F)O3)c1 (stereo not drawn) [Compound 193] | at least 80% | – | ≥ 80 | ≥ 80 | ≥ 80
CC(=O)Nc1cc(-c2ccc3c(c2)CC(c2cc(Cl)c(F)c(Cl)c2)(C(F)(F)F)O3)ccc1Cl (stereo not drawn) [Compound 246] | at least 80% | ≥ 80 | ≥ 80 | – | ≥ 80
CCN(C(=O)C1CC1)c1cccc(-c2ccc3c(c2)CC(c2cc(Cl)cc(Cl)c2)(C(F)(F)F)O3)c1 (racemic) [Compound 9] | – | ≥ 80 | ≥ 80 | ≥ 80 | ≥ 80
CC(C)C(=O)Nc1cc(-c2ccc3c(c2)CC(c2cc(C(F)(F)F)cc(C(F)(F)F)c2)(C(F)(F)F)O3)ccc1Cl (stereo not drawn) [Compound 223] | at least 80% | ≥ 80 | ≥ 80 | – | ≥ 80
CCC(=O)Nc1cc(-c2ccc3c(c2)CC(c2cc(Cl)cc(Cl)c2)(C(F)(F)F)O3)ccc1C (stereo not drawn) [Compound 194] | at least 80% | ≥ 80 | ≥ 80 | – | ≥ 80
N#Cc1ccc(-c2ccc3c(c2)CC(c2cc(Cl)cc(Cl)c2)(C(F)(F)F)O3)cc1NC(=O)C1C[S+]([O-])C1 (stereo not drawn) [Compound 265] | – | – | – | – | ≥ 80
CCC(=O)Nc1cc(-c2ccc3c(c2)CC(c2cc(Cl)nc(Cl)c2)(C(F)(F)F)O3)ccc1C#N (racemic) [Compound 257] | at least 80% | – | ≥ 80 | – | ≥ 80
O=C(CC(F)(F)F)Nc1cc(-c2ccc3c(c2)CC(c2cc(Cl)c(F)c(Cl)c2)(C(F)(F)F)O3)c(F)cc1Cl (stereo not drawn) [Compound 245] | at least 80% | ≥ 80 | ≥ 80 | – | ≥ 80
Cc1ccc(-c2ccc3c(c2)CC(c2cc(Cl)cc(Cl)c2)(C(F)(F)F)O3)cc1NC(=O)C1CC1 (stereo not drawn) [Compound 131] | at least 80% | ≥ 80 | ≥ 80 | – | ≥ 80
CCC(=O)Nc1cc(-c2ccc3c(c2)CC(c2cccc(C(F)(F)F)c2)(C(F)(F)F)O3)ccc1F (racemic) [Compound 258] | at least 80% | – | ≥ 80 | – | ≥ 80
CCC(=O)Nc1cccc(-c2cc3c(cc2Cl)OC(c2cc(Cl)cc(Cl)c2)(C(F)(F)F)C3)n1 (stereo not drawn) [Compound 179] | at least 80% | ≥ 80 | ≥ 80 | – | ≥ 80
O=C(Nc1nccc(-c2cc3c(cc2Cl)OC(c2cc(Cl)cc(Cl)c2)(C(F)(F)F)C3)n1)C1CC1 (stereo not drawn) [Compound 205] | at least 80% | – | ≥ 80 | ≥ 80 | ≥ 80
CSCC(=O)Nc1cccc(-c2ccc3c(c2)CC(c2cc(C(F)(F)F)cc(C(F)(F)F)c2)(C(F)(F)F)O3)c1 (racemic) [Compound 75] | at least 80% | – | ≥ 80 | ≥ 80 | ≥ 80
CCC(=O)Nc1cccc(-c2ccc3c(c2)CC(c2cccc(C(F)(F)F)c2)(C(F)(F)F)O3)c1 (stereo not drawn) [Compound 192] | at least 80% | – | ≥ 80 | ≥ 80 | ≥ 80
CC(=O)Nc1cc(F)cc(-c2ccc3c(c2)CC(c2cc(Cl)cc(Cl)c2)(C(F)(F)F)O3)c1 (stereo not drawn) [Compound 46] | at least 80% | ≥ 80 | ≥ 80 | ≥ 80 | –
O=C(Nc1cccc(-c2ccc3c(c2)CC(c2cccc(C(F)(F)F)c2)(C(F)(F)F)O3)c1)C1CCCC1 (stereo not drawn) [Compound 146] | at least 80% | ≥ 80 | ≥ 80 | ≥ 80 | –
CCC(=O)Nc1cc(-c2ccc3c(c2)CC(c2cc(Cl)cc(Cl)c2)(C(F)(F)F)O3)ccc1[N+](=O)[O-] (stereo not drawn) [Compound 243] | at least 80% | ≥ 80 | ≥ 80 | ≥ 80 | –
CSCC(=O)Nc1cccc(-c2ccc3c(c2)CC(c2cccc(C(F)(F)F)c2)(C(F)(F)F)O3)c1 (stereo not drawn) [Compound 132] | at least 80% | ≥ 80 | ≥ 80 | ≥ 80 | –
O=C(Nc1cccc(-c2ccc3c(c2)CC(c2cccc(C(F)(F)F)c2)(C(F)(F)F)O3)c1)c1ccccc1 (stereo not drawn) [Compound 110] | at least 80% | ≥ 80 | ≥ 80 | ≥ 80 | –
CC(C)C(=O)Nc1cc(-c2ccc3c(c2)CC(c2cccc(C(F)(F)F)c2)(C(F)(F)F)O3)c(F)cc1Cl (stereo not drawn) [Compound 249] | at least 80% | ≥ 80 | ≥ 80 | – | ≥ 80
